Laboratory results reported in patent US20210095045A1.
Results are given in words; binding and its absence hold for the method and conditions named. Some results given as binding are weak or reduced against the parent protein; the word gives no strength.

Legend:
[1] = target: T1, murine MAEA (macrophage erythroblast attacher) (mouse) (UniProt Q4VC33); assay: flow cytometry on mouse bone marrow cells, MAEA-deleted cells as control
T1 sequence (looked up): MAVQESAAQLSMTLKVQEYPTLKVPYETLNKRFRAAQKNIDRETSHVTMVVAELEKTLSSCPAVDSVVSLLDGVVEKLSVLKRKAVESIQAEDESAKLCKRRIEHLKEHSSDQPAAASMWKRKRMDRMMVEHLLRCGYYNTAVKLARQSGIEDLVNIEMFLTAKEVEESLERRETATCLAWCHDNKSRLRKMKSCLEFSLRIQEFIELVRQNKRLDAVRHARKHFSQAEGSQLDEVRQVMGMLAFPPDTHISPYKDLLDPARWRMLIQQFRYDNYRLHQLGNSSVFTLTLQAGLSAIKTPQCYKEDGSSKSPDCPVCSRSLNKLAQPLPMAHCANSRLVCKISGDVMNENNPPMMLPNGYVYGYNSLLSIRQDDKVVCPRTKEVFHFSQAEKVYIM

[2] = target: T1, murine MAEA (macrophage erythroblast attacher) (mouse); assay: flow cytometry on mouse bone marrow macrophages, MAEA-deleted cells as control

binding [1]: binds
binding [2]: binds
B1: Anti-MAEA mAb 92.25 (antibody, V domains shown)
VH: EVQLQQFGAELVRPGASVKISCKASGYTFTDYNMDWVKQSHAKRLEWIGDINPNYDSPTYSQKFKGRATLTVDNSSSTAYMELRSLTSEDTAVYYCARGHYYGYGYFDVWGAGTTVTVSS
VL: DIEMTQSQKFMSTAVGDRVSVTCKASQNVGTNVAWYQQKPGKSPKVLIYSASYRYSGVPDRFRGSRSGTDFTLTISNVQSEDLAEYFCQQYNTYPWTFGGGTKLEIK
